Values of other authors as cited in patent publication US20250145963A1, “Improved Differentiation Method” (Koninklijke Nederlandse Akademie Van Wetenschappen, priority 2016, published 2025).
At least one structure is not confirmed: it was looked up by name or label, or the drawing left a doubt.

Molecular target: T1, glucocorticoid receptor (Homo sapiens, UniProt P04150)
T1 sequence (P04150 1-777): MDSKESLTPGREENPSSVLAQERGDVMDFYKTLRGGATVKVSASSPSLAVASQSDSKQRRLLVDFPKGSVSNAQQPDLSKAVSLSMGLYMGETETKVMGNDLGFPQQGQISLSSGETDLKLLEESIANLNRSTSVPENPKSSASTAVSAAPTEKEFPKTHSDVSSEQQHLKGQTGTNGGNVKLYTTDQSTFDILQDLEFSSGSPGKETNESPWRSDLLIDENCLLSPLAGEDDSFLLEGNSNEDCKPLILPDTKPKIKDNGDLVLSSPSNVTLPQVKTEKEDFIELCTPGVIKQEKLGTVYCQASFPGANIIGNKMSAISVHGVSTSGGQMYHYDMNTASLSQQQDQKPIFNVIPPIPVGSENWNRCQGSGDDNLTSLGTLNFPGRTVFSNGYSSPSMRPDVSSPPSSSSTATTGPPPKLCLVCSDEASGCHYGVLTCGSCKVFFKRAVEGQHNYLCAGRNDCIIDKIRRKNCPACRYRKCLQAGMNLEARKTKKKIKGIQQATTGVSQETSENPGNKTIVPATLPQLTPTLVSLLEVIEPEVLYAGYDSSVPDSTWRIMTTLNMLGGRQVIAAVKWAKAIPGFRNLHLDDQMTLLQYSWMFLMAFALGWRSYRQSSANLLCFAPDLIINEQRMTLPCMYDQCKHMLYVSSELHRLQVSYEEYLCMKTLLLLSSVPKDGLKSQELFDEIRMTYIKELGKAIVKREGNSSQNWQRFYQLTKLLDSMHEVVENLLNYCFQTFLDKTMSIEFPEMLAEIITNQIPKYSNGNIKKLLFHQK
Details: oral dosing; in comparison to cortisol; cited from earlier work

## C[C@H]1C[C@@H]2[C@H]([C@@H](O)C[C@@]3(C)[C@H]2CC[C@]3(O)C(=O)CO)[C@@]2(C)C=CC(=O)C=C12 [Methylprednisolone]
  Glucocorticoid potency: 5-7.5
